The target in the experiment is T1, V. alginolyticus RpoE (sigma factor E) (V. alginolyticus).
T1 sequence: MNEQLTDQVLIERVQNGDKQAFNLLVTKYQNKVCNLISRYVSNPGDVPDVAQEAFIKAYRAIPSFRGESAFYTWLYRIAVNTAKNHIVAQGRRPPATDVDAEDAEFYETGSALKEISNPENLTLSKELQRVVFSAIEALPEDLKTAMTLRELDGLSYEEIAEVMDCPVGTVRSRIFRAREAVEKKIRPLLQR
Nature of the experiment: two-hybrid; bacterial two-hybrid system; read out qualitatively on X-gal plate and quantitatively by β-galactosidase activity.

These are yes or no findings as the source states them, for the method shown. A result given as binding can be weak or reduced; the word gives no strength.

As for “V. alginolyticus RseA (anti-sigma factor)”, the binding result is on record as “binds”.

The values above are taken from article PMC4890791.
